The source of these data is paper doi:10.1101/2020.01.03.892703.

No constants are given. Whether binding was seen depends on the method and setting. Binding seen in cells or lysates may run through a third protein. A yes stands for co-enrichment or nearness to the bait. Other partners may have been found. Where a sequence is shown, tags or fusion partners need not be part of it.

B1: NUP153 (protein, UniProt E9Q3G8 1-1462)
chain: MASEAGGIGGGGGGGKIRTRRCHQGPVKPYQQGRPQHQGILSRVTESVKNIVPGWLQRYFNKSENACSCSPDADEVPPWPENREDEHAIYADENTNTDDGRITPDPAGSNTEEPSTTSTASNYPDVLTRPSLHRSHLNFSVLESPALHCQPSTSSAFPIGSSGFSLVKEIKDSTSQHDDDNISTTSGFSSRASEKDIAVSKNTSLPPLWSPEAERSHSLSQHTAISSKKPAFNLSAFGTLSTSLGNSSILKTSQLGDSPFYPGKTTYGGAAAAVRQNKVRSTPYQAPVRRQMKAKQLNAQSYGVTSSTARRILQSLEKMSSPLADAKRIPSAVSSPLNSPLDRSGIDNTVFQAKKEKVDSQYPPVQRLMTPKPVSIATNRTVYFKPSLTPSGDLRKTNQRIDKKNSTVDEKSISRQNREQESGFSYPNFSIPAANGLSSGVGGGGGKMRRERTHFVAPKPPENEEVEAPLLPQISLPISSSSLPTFSFSSPVTSASPSPVSSSQPLPNKVQMTSLGSTGSPVFTFSSPIVKSTQAAVLPPASIGFTFSVPLAKTEFSGSNSSSETVLSSSAQDITAVNSSSYKKRSAPCEDPFTPAKILREGSVLDILKTPGFASPKVDSPALQPTTTSSIVYTRPAISTFSSSGIEYGESLKAGSSWQCDTCLLQNKVTDNKCIACQAAKLPLKETAKQTGTGTPSKSDKPASTSGTGFGDKFKPAIGTWDCDTCLVQNKPEAVKCVACETPKPGTGVKRALTLTVASESPVTASSSTTVTTGTLGFGDKFKRPVGSWECPVCCVCNKAEDNRCVSCTSEKPGLVSASSSSPAPVSLSSGGCLGLDKFKKPEGSWDCEVCLVQNKADSAKCIACESAKPGTKSEFKGFGTSSSLNPAPSAFKFGIPSSSSGLSQTLTSTGNFKFGDQGGFKLGTSSDSGSTNTMNTNFKFSKPTGDFKFGVLSDSKPEEVKNDNKNDNFQFGSSSGLTNPASSAPFQFGVSTLGQQEKKEELPKSSPAGFSFGAGVNNPPNAAIDTTATSENKSGFNFGTLDTKSVSVTPFTYKTTEAKKEDAPATKGGFTFGKVGSSSLPSSSMFVLGRTEEKQQEPVTSTSLVFGKKADSEEPKCQPVFSFGNSEQTKDESSKPTFSFSVAKPSGKESEQLAKATFAFGNQTNTTTDQGAAKPVFSFLNSSSSSSSAPATSSSGGIFGSSTSSSNPPVAAFVFGQASNPVSSSAFGNAAESSTSQSLLFPQESEPATTSSTAPAASPFVFGTGASSNSVSSGFTFGATTTSSSSGSSFVFGTGHSAPSASPAFGANQTPTFGQSQGASQPNPPSFGSISSSTALFSAGSQPVPPPIFGTVSSSSQPPVFGQQPSQSAFGSGTANASSVFQFGSSTTNFNFTNNNPSGVFTFGASPSTPAASAQPSGSGVFSFSQSPASFTVGSNGKNMFSSSGTSVSGRKIKTAVRRKK
B2: WDR36 (protein, UniProt Q3TAQ9 1-899)
chain: MAEMESAVEGRTASVLFAGFRALGLFSNEVPHVVRYSALKRRFYVTTCVGKSFHTYDVQKLSLVAVSNSVPQDICCMAADGRLVFAAYGNVFSAFARNKEIVHTFKGHKAEIHLLQPFGDHVISVDTDSVLIIWHIYSEEEYLQLTFDKSVFKISTILHPSTYLNKVLLGSEQGSLQLWNIKSNKLLYTFPGWKVGVTALQQAPAVDVVAIGLVSGQVVIHNIKYDETLMKFHQDWGPITSISFRTDGHPIMAAGSPCGHIGLWDLEDKKLINQMRNAHSTAISGLTFLHREPLLVTNGADNALRIWIFDGPAGEGRLLRFRMGHSASLTKIRYYGQNGQQILSASQDGTLQSFSTVHEKFNKSLGHGLVNKKIVKRKGLQNTMSVRLPPITQFAAEEARQSDWDGIIACHQGKRSCSTWNYQRSTIGAYFLKPRGVKTNSNLTATAVDITSCGNFAIIGLSSGAVDVYNMQSGIHRGNFGDDKAHTGSVRGVAVDGLNQLVVTAGSERLLKFWNFKSKVLIHSLGLDSSPNMMLLHRDSGILGLAMDDFSIAVLDIETRKIVREFSGHHGQINDMTFSPDGRWLISAAMDCSVRTWDLPSGCLIDCFLLDSAPLNVTMSPTGDFLATSHVDHLGIYLWSNISLYSVVSLRPLPPDYVPSIVMLPGTCQTQGMEDLEEKTEPSDEMIEYESPEQLSEQLVTLSLLPESRWKNLLNLDVIKKKNKPKEPPKVPQSAPFFIPTVPGLVPRFAVPEPSSDPQQSKVVNLGILAQKSNFYLKLEEGLLNNQYEAALNLLKELGPSGIETELRNLSPDDGGSVEVMRSFLSMIGMMLDRKRDFELAQAYLALFLKLHLRTLPSEPALLEELVKLSSQVEKDWTHLQSLFNQSMCVLNYIKSAFL
B3: GNL3 (protein, UniProt Q8CI11 1-538)
chain: MKRPKLKKASKRMTCHKRYKIQKKVREHHRKLRKEAKKRGHKKPRKDPGVPNSAPFKEALLREAELRKQQLEELKQQQKLDRQKEQERKRKLEVSPGDEQSNVETREESDEPKRKKAKAGKQNPKKLHCQELKKVIEASDIVLEVLDARDPLGCRCPQIEEAVIQSGSKKLILVLNKSDLVPKENLENWLNYLNKELPTVVFKASTNLKNRKTFKIKKKKVVPFQSKICCGKEALWKLLGDFQQSCGKDIQVGVIGFPNVGKSSVINSLKQEWICNVGISMGLTRSMQIVPLDKQITIIDSPCLIISPCNSPTALALRSPASIEELRPLEAASAILSQADNEQVVLKYTVPEYKDSLHFFTKLAQRRGLHQKGGSPNVESAAKLVWSEWTGASLGYYCHPPASWNHSLHFNENIAAVMKKGFNLEELEKNNAHSIQVLKGPHLTNRILFRSSGLTNGILDEKDIVEESPRQTEDKQDADDQENGSGERNAEISDVAPVEETRELSPEQSTAGKPSDGSSALDRASQEDETYDFTTDYI
B4: NOP58 (protein, UniProt Q6DFW4 1-536)
chain: MLVLFETSVGYAIFKVLNEKKLQEVDSLWKEFETPEKANKIVKLKHFEKFQDTAEALAAFTALMEGKINKQLKKVLKKIVKEAHEPLAVADAKLGGVIKEKLNLSCIHSPVVNELMRGIRSQMDGLIPGVEPREMAAMCLGLAHSLSRYRLKFSADKVDTMIVQAISLLDDLDKELNNYIMRCREWYGWHFPELGKIISDNLTYCKCLQKVGDRKNYASASLSEFLSEEVEAEVKAAAEISMGTEVSEEDICNILHLCTQVIEISEYRTQLYEYLQNRMMAIAPNVTVMVGELVGARLIAHAGSLLNLAKHAASTVQILGAEKALFRALKSRRDTPKYGLIYHASLVGQSSPKHKGKISRMLAAKTVLAIRYDAFGEDSSSAMGIENRAKLEARLRILEDRGIRKISGTGKALAKAEKYEHKSEVKTYDPSGDSTLPTCSKKRKIEEVDKEDEITEKKAKKAKIKIKAEVEEEMEEEEAEEEQVVEEEPTVKKKKKKDKKKHIKEEPLSEEEPCTSTAVPSPEKKKKKKKKKDAED
B5: UTP15 (protein, UniProt Q8C7V3 1-528)
chain: MAGYKPVAIQTYPVLGEKITQDTLYWNNYKTPVQIKEFGAVSKVDFSPQLPYNYAVTASSRIHIYGRYSQEPVKTFSRFKDTAYCATFRQDGQLLVAGSEDGVVQLFDINGRAPLRQFEGHTKAVHTVDFTADNYHVVSGADDYTVKLWDIPNSKEILTFKEHSDYVRCGCASKLNPDLFVTGSYDHTVKIFDARTNKNVLCVEHGQPVESVLLFPSGGLLVSAGGRYVKVWDMLKGGQLLVSLKNHHKTVTCLCLSSSGQRLLSGSLDRKVKVYSTTSYKVVHSFDYAASILSLALSHQDETIVVGMTNGILSVKHRKSEAKKTSLPRRRRPAYRTFIKGKNYLKQRDDIMVSRPAKKHLEGYDKDLKSFRVSQALDRVLEPKCVIRTPEVTVSIIKELTRRGVLANALAGRDEKEVTRVLNFLIRNLSQPRFAPVLINAAEIIIDIYLPVIGQSSVVDKKFIVLQELVEKEIDYQRELLETLGMMDMLFATMTRNDSDPVPEHVPAELPEEKTESPTQPSDTDKNS

The target of this test is T1, biotin-tagged XPF (mouse (endogenous knock-in in MEFs)) (UniProt Q9QZD4).
T1 sequence (chain, biotin on the 15 aa tag (by the BirA ligase in vivo)): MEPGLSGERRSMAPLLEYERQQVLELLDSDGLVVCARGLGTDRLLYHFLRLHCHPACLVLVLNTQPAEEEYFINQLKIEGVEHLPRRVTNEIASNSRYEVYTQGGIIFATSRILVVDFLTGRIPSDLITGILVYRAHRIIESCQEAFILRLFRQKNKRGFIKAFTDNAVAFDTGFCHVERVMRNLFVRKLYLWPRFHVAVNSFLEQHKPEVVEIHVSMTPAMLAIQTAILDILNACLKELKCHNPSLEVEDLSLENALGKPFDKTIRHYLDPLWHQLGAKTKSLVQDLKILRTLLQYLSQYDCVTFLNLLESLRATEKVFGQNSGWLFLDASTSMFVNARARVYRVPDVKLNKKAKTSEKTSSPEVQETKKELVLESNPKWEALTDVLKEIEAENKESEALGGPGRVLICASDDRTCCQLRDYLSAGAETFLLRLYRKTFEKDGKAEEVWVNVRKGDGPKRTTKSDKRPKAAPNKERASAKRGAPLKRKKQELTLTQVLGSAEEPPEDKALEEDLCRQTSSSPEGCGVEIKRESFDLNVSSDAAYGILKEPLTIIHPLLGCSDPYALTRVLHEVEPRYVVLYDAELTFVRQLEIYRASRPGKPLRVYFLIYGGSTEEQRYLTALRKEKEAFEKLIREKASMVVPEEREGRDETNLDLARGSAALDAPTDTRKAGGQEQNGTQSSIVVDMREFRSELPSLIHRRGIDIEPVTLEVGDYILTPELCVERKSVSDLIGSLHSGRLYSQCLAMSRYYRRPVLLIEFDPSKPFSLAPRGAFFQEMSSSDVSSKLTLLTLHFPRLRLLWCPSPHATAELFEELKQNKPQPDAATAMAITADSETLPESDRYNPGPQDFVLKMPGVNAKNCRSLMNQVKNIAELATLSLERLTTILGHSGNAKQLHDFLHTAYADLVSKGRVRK
Nature of the test: affinity purification with mass spectrometry.
Take B1: the binding entry is “binds”.

For the molecule B2, the binding entry is reported as “binds”.

B3: the binding result is “binds”.

On to B4, for which the binding entry is given as “binds”.

B5: the binding entry is recorded as “binds”.
